Measurements from patent US20240038331A1.
Results are given in words; binding and its absence hold for the method and conditions named. For part of these data: Binding seen in cells or lysates may run through a third protein. Some binding calls cover weakened binding; strength is not graded here. Where a sequence is shown, tags or fusion partners need not be part of it.

What was measured:
[1] = molecular target: T1, T33-28B, C-terminally His-tagged; experiment: X-ray crystal structure of the assembled cage, PDB 4NWR, 3.5 A
T1 sequence: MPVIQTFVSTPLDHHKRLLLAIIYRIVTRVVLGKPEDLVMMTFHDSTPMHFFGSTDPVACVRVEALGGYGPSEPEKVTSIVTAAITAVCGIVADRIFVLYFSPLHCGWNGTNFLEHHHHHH

[2] = molecular target: T1, T33-28B, C-terminally His-tagged; experiment: analytical SEC, FIG. 5A
[3] = molecular target: T1, T33-28B, C-terminally His-tagged; experiment: negative stain electron microscopy of purified co-expressed material, FIG. 6A
[4] = molecular target: T1, T33-28B, C-terminally His-tagged; experiment: nickel affinity co-purification (His tag on one subunit only) and SEC, co-expressed in E. coli
[5] = molecular target: T2, T33-28B, C-terminally A1-tagged; experiment: native PAGE of cleared lysates, initial screen of co-expressed (A1-tagged) constructs
T2 sequence: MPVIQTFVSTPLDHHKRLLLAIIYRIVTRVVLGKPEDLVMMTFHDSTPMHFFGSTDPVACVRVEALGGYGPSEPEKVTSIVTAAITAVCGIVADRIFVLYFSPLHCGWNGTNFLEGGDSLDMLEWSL

[6] = molecular target: T3, T33-15B, C-terminally His-tagged; experiment: native PAGE of cell lysate, His-tagged co-expression construct (lane 6), FIG. 5B
T3 sequence: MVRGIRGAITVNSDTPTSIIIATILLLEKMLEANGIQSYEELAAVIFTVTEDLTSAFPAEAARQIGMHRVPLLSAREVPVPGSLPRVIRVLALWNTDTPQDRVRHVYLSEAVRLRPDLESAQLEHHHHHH

[7] = molecular target: T3, T33-15B, C-terminally His-tagged; experiment: analytical SEC, FIG. 5A
[8] = molecular target: T3, T33-15B, C-terminally His-tagged; experiment: negative stain electron microscopy of purified co-expressed material, FIG. 6A
[9] = molecular target: T4, T33-15B, C-terminally A1-tagged; experiment: native PAGE of cell lysate, A1-tagged co-expression construct (lane 5), FIG. 5B
T4 sequence: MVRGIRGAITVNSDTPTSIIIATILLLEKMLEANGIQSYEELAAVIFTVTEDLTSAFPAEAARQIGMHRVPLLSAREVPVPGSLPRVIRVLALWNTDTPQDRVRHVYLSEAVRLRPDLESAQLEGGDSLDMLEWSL

[10] = molecular target: T3, T33-15B, C-terminally His-tagged; experiment: nickel affinity co-purification (His tag on one subunit only) and SEC, co-expressed in E. coli
[11] = molecular target: T3, T33-15B, C-terminally His-tagged; experiment: X-ray crystal structure of the assembled cage, PDB 4NWO, 2.8 A
[12] = molecular target: T4, T33-15B, C-terminally A1-tagged; experiment: native PAGE of cleared lysates, initial screen of co-expressed (A1-tagged) constructs
[13] = molecular target: T3, T33-15B, C-terminally His-tagged; experiment: native PAGE after in vitro mixing of cell lysates
[14] = molecular target: T3, T33-15B, C-terminally His-tagged; experiment: native PAGE after mixing cleared lysates of separately expressed His-tagged components
[15] = molecular target: T3, T33-15B, C-terminally His-tagged; experiment: native PAGE after in vitro mixing of crude lysates of separately expressed components; more efficient assembly with adjusted volumes (lane 8), FIG. 5B
[16] = molecular target: T3, T33-15B, C-terminally His-tagged; experiment: analytical SEC after mixing purified His-tagged components 1:1, each at 50 µM subunit, two hours at room temperature, 5% glycerol
[17] = molecular target: T3, T33-15B, C-terminally His-tagged; experiment: negative stain electron microscopy of the unpurified mixture of independently purified components, FIG. 6B
[18] = molecular target: T3, T33-15B, C-terminally His-tagged; experiment: native PAGE after mixing crude lysates of separately expressed His-tagged components, two hours at room temperature
[19] = molecular target: T3, T33-15B, C-terminally His-tagged; experiment: SEC after mixing the two purified components in a 1:1 molar ratio, two hours at room temperature
[20] = molecular target: T5, T33-09B, C-terminally His-tagged; experiment: analytical SEC, FIG. 5A
T5 sequence: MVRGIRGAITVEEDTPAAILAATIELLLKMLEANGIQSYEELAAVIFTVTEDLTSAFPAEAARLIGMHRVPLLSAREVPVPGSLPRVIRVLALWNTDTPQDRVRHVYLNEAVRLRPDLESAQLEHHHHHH

[21] = molecular target: T5, T33-09B, C-terminally His-tagged; experiment: negative stain electron microscopy of purified co-expressed material, FIG. 6A
[22] = molecular target: T5, T33-09B, C-terminally His-tagged; experiment: nickel affinity co-purification (His tag on one subunit only) and SEC, co-expressed in E. coli
[23] = molecular target: T6, T33-09B, C-terminally A1-tagged; experiment: native PAGE of cleared lysate
T6 sequence: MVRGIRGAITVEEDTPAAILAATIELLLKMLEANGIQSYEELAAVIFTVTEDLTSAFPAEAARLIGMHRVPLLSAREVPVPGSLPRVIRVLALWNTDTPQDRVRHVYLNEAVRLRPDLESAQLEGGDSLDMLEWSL

[24] = molecular target: T5, T33-09B, C-terminally His-tagged; experiment: SEC and electron microscopy; no visible band on native PAGE, which the filing puts down to a concentration below the detection limit
[25] = molecular target: T6, T33-09B, C-terminally A1-tagged; experiment: native PAGE of cleared lysates, initial screen of co-expressed (A1-tagged) constructs
[26] = molecular target: T7, T33-21B, C-terminally His-tagged; experiment: analytical SEC, FIG. 5A
T7 sequence: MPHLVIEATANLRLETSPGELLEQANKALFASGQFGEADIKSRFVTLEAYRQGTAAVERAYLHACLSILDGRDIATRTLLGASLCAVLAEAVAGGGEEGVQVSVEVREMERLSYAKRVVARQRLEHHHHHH

[27] = molecular target: T7, T33-21B, C-terminally His-tagged; experiment: negative stain electron microscopy of purified co-expressed material, FIG. 6A
[28] = molecular target: T7, T33-21B, C-terminally His-tagged; experiment: nickel affinity co-purification (His tag on one subunit only) and SEC, co-expressed in E. coli
[29] = molecular target: T7, T33-21B, C-terminally His-tagged; experiment: X-ray crystal structures of the assembled cage, PDB 4NWP (R32) and 4NWQ (F4132)
[30] = molecular target: T8, T33-21B, C-terminally A1-tagged; experiment: native PAGE of cleared lysates, initial screen of co-expressed (A1-tagged) constructs
T8 sequence: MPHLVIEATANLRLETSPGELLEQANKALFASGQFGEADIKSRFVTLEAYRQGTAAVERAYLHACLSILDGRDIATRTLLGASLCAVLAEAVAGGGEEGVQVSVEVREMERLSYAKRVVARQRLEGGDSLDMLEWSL

Measured: binding

B1: T33-28A (designed binder)
chain: MESVNTSFLSPSLVTIRDFDNGQFAVLRIGRTGFPADKGDIDLCLDKMIGVRAAQIFLGDDTEDGFKGPHIRIRCVDIDDKHTYNAMVYVDLIVGTGASEVERETAEEEAKLALRVALQVDIADEHSCVTQFEMKLREELLSSDSFHPDKDEYYKDFL
binds: [1] | [2] | [3] | [4] | [5]

B2: T33-15A (designed binder)
chain: MSKAKIGIVTVSDRASAGITADISGKAIILALNLYLTSEWEPIYQVIPDEQDVIETTLIKMADEQDCCLIVTTGGTGPAKRDVTPEATEAVCDRMMPGFGELMRAESLKEVPTAILSRQTAGLRGDSLIVNLPGDPASISDCLLAVFPAIPYCIDLMEGPYLECNEAMIKPFRPKAK
binds: [6] | [7] | [8] | [9] | [10] | [11] | [12]

B3: T33-15A, C-terminally His-tagged (designed binder)
chain: MSKAKIGIVTVSDRASAGITADISGKAIILALNLYLTSEWEPIYQVIPDEQDVIETTLIKMADEQDCCLIVTTGGTGPAKRDVTPEATEAVCDRMMPGFGELMRAESLKEVPTAILSRQTAGLRGDSLIVNLPGDPASISDCLLAVFPAIPYCIDLMEGPYLECNEAMIKPFRPKAKLEHHHHHH
binds: [13] | [14] | [15] | [16] | [17] | [18] | [19]

B4: T33-09A (designed binder)
chain: MEEVVLITVPSALVAVKIAHALVEERLAACVNIVPGLTSIYRWQGSVVSDHELLLLVKTTTHAFPKLKERVKALHPYTVPEIVALPIAEGNREYLDWLRENTG
binds: [20] | [21] | [22] | [23] | [24] | [25]

B5: T33-21A (designed binder)
chain: MRITTKVGDKGSTRLFGGEEVWKDSPIIEANGTLDELTSFIGEAKHYVDEEMKGILEEIQNDIYKIMGEIGSKGKIEGISEERIAWLLKLILRYMEMVNLKSFVLPGGTLESAKLDVCRTIARRALRKVLTVTREFGIGAEAAAYLLALSDLLFLLARVIEIEKNKLKEVRS
binds: [26] | [27] | [28] | [29] | [30]
